Article PMC5333915

Experiments:
[1] = biological target: T1, Suppressor of Gene Silencing 3 from Nicotiana benthamiana (NbSGS3), BiFC fusion (Nicotiana benthamiana) (UniProt X4YFK1); experiment: split reporter; BiFC with 2YN and 2YC fragments of YFP, agroinfiltrated leaves of H2B-RFP transgenic N. benthamiana, confocal microscopy at 48 hpi
T1 sequence: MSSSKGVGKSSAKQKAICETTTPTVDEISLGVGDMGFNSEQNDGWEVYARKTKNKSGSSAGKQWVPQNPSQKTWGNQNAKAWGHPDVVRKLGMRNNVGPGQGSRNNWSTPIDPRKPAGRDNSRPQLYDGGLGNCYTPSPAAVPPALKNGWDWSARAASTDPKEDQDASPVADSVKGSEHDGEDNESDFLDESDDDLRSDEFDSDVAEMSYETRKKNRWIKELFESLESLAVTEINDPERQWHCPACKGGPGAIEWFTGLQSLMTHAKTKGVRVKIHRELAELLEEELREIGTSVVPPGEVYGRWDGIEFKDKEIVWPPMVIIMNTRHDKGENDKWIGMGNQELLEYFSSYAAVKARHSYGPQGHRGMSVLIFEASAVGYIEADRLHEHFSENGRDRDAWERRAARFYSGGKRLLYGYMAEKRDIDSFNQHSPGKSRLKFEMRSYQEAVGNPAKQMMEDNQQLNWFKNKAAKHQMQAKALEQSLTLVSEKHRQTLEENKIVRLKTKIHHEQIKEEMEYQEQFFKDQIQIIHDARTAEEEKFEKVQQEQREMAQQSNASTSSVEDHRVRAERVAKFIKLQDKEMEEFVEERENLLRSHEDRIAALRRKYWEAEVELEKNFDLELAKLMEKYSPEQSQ

[2] = biological target: T2, Suppressor of Gene Silencing 3 from Nicotiana benthamiana (NbSGS3), GAL4 two-hybrid fusion (Nicotiana benthamiana) (UniProt X4YFK1); experiment: two-hybrid; GAL4 system (pGADT7 AD, pGBKT7 BD) in yeast; reporter genes HIS3 and ADE2; growth on SD/Leu-Trp-His selection plates with 5 mM 3-AT; serial 10-fold dilutions
T2 sequence: T1 sequence

Substance | binding [1] | binding [2]
RNA-dependent RNA polymerase 6 from Nicotiana benthamiana (NbRDR6), BiFC fusion | binds | 
RNA-dependent RNA polymerase 6 from Nicotiana benthamiana (NbRDR6), GAL4 two-hybrid fusion (from UniProt Q647I5) |  | binds
calmodulin-like protein from Nicotiana benthamiana (NbCaM), BiFC fusion | binds | 

Results are given in words; binding and its absence hold for the method and conditions named. A result given as binding can be weak or reduced; the word gives no strength. Where a sequence is shown, tags or fusion partners need not be part of it. For part of these data: In cells and extracts the contact can be indirect.
